PubChem BioAssay AID1259405 | NCATS – 2018

- Purpose: 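Knock-downs that lift recombinant protein yield in hamster ovary cells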 (primary screen)
- System: Chinese hamster CHO-K1 ovary cells with stable secreted eGFP expression
- Knock-down reagent: single siRNA against mouse genes, 0.8 pmol siRNA per well (2 µl of 400 nM stock)
- Timing: 3 days
- Read-out: 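Percent of the per-plate non-targeting control median for intracellular GFP per well by laser scanning cytometry and for cell viability by ATP luminescence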
- Direction: GFP, % of control: higher = more GFP per well, higher productivity; viability (ATP), % of control: higher = more viable cells (more ATP)
- Call rule: 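a knock-down is called active if GFP reaches 120% or more of non-targeting control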
Shown is one part, drawn at random, of about 50,000 reagents. About 4,000 of them (8%) were called active. 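Mouse siRNA library applied to hamster cells; one well for each siRNA.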 Reagents against one gene are numbered here.

no.	gene knocked down	reagent no.	GFP, % of control	viability (ATP), % of control	activity call
1	Dennd4a (GeneID 102442)	1	80.1	89.7	inactive
2	Dennd4a (GeneID 102442)	2	112	98.5	inactive
3	Dennd4a (GeneID 102442)	3	80.7	56.5	inactive
4	Calm5 (GeneID 494124)	1	25.8	52	inactive
5	Calm5 (GeneID 494124)	2	93.4	61.3	inactive
6	Calm5 (GeneID 494124)	3	67.3	63.8	inactive
7	Krtap21-1 (GeneID 170656)	1	124	95.8	active
8	Krtap21-1 (GeneID 170656)	2	83.7	80.4	inactive
9	Krtap21-1 (GeneID 170656)	3	126	92	active
10	Marchf7 (GeneID 57438)	1	38.2	46.8	inactive
11	Marchf7 (GeneID 57438)	2	64.6	67.4	inactive
12	Marchf7 (GeneID 57438)	3	87.4	103	inactive
13	Ppp3r1 (GeneID 19058)	1	79.9	80.7	inactive
14	Ppp3r1 (GeneID 19058)	2	52.1	55.8	inactive
15	Ppp3r1 (GeneID 19058)	3	87.7	88.8	inactive
16	Foxj3 (GeneID 230700)	1	88.4	26	inactive
17	Foxj3 (GeneID 230700)	2	64.1	60.9	inactive
18	Foxj3 (GeneID 230700)	3	68.9	78.5	inactive
19	Cmtm1 (GeneID 100504164)	1	67.9	81.2	inactive
20	Cmtm1 (GeneID 100504164)	2	103	82.9	inactive
21	Cmtm1 (GeneID 100504164)	3	88.1	124	inactive
22	Smu1 (GeneID 74255)	1	108	37.1	inactive
23	Smu1 (GeneID 74255)	2	77.8	65.6	inactive
24	Smu1 (GeneID 74255)	3	63.9	73.2	inactive
25	Gpr45 (GeneID 93690)	1	112	94.8	inactive
26	Gpr45 (GeneID 93690)	2	63.1	57.9	inactive
27	Gpr45 (GeneID 93690)	3	79.8	77.2	inactive
28	Tlr4 (GeneID 21898)	1	114	87.2	inactive
29	Tlr4 (GeneID 21898)	2	42.5	51.6	inactive
30	Tlr4 (GeneID 21898)	3	122	77.7	active
31	Wdsub1 (GeneID 72137)	1	170	88.9	active
32	Wdsub1 (GeneID 72137)	2	4.49	36.2	inactive
33	Wdsub1 (GeneID 72137)	3	83.2	85.1	inactive

Continued (7 carried over from the part before).
no.	gene knocked down	reagent no.	GFP, % of control	viability (ATP), % of control	activity call
27	Gpr45 (GeneID 93690)	3	79.8	77.2	inactive
28	Tlr4 (GeneID 21898)	1	114	87.2	inactive
29	Tlr4 (GeneID 21898)	2	42.5	51.6	inactive
30	Tlr4 (GeneID 21898)	3	122	77.7	active
31	Wdsub1 (GeneID 72137)	1	170	88.9	active
32	Wdsub1 (GeneID 72137)	2	4.49	36.2	inactive
33	Wdsub1 (GeneID 72137)	3	83.2	85.1	inactive
34	Or2ag15 (GeneID 258592)	1	118	87.8	inactive
35	Or2ag15 (GeneID 258592)	2	88.4	54.6	inactive
36	Or2ag15 (GeneID 258592)	3	70.3	69.6	inactive
37	Mapk9 (GeneID 26420)	1	59.9	71.3	inactive
38	Abcb6 (GeneID 74104)	1	88.7	95.5	inactive
39	Abcb6 (GeneID 74104)	2	70.7	74.7	inactive
40	Abcb6 (GeneID 74104)	3	93.1	73	inactive
41	Armcx2 (GeneID 67416)	1	86.5	80.2	inactive
42	Armcx2 (GeneID 67416)	2	62.5	62.3	inactive
43	Armcx2 (GeneID 67416)	3	70.2	64.1	inactive
44	Sgsh (GeneID 27029)	1	111	77.7	inactive
45	Sgsh (GeneID 27029)	2	50.2	50.5	inactive
46	Sgsh (GeneID 27029)	3	66.7	62.2	inactive
47	Dstyk (GeneID 213452)	1	78.1	74.5	inactive
48	Ftcd (GeneID 14317)	1	86.9	71.8	inactive
49	Ftcd (GeneID 14317)	2	69.1	68.1	inactive
50	Ftcd (GeneID 14317)	3	84.8	80	inactive
51	Itpripl2 (GeneID 319622)	1	67.6	67.9	inactive
52	Itpripl2 (GeneID 319622)	2	98.8	78.7	inactive
53	Itpripl2 (GeneID 319622)	3	47.6	60.7	inactive
54	Gigyf2 (GeneID 227331)	1	34.1	41.5	inactive
55	Gigyf2 (GeneID 227331)	2	124	143	active
56	Gigyf2 (GeneID 227331)	3	104	150	inactive
57	Ssxb2 (GeneID 387132)	1	118	86.5	inactive
58	Ssxb2 (GeneID 387132)	2	89.7	72.7	inactive
59	Ssxb2 (GeneID 387132)	3	35.8	67	inactive
60	Lhx3 (GeneID 16871)	1	67.4	82	inactive
61	Lhx3 (GeneID 16871)	2	75.1	76.6	inactive
62	Lhx3 (GeneID 16871)	3	41.4	59.6	inactive
63	D830014E11Rik (GeneID 320751)	1	75.6	91.7	inactive
64	D830014E11Rik (GeneID 320751)	2	65.6	78.7	inactive
65	D830014E11Rik (GeneID 320751)	3	106	60.5	inactive
66	Nr2c1 (GeneID 22025)	1	86.6	70.6	inactive
67	Nr2c1 (GeneID 22025)	2	80.5	80.6	inactive
68	Nr2c1 (GeneID 22025)	3	68.9	76.3	inactive
69	Gins4 (GeneID 109145)	1	22.8	55.6	inactive
70	Gins4 (GeneID 109145)	2	36.3	31.5	inactive
71	Gins4 (GeneID 109145)	3	64.8	66.7	inactive
72	Tpm3 (GeneID 59069)	1	56.8	58.2	inactive
73	Tpm3 (GeneID 59069)	2	69	58	inactive
74	Tpm3 (GeneID 59069)	3	43.8	45.4	inactive
75	Utp14a (GeneID 72554)	1	66.7	36.4	inactive
76	Utp14a (GeneID 72554)	2	37.5	26.8	inactive
77	Utp14a (GeneID 72554)	3	67.5	95.8	inactive
78	Tmem216 (GeneID 68642)	1	95.6	71.7	inactive
79	Tmem216 (GeneID 68642)	2	46.6	32.7	inactive
80	Tmem216 (GeneID 68642)	3	95.6	68.1	inactive
81	Stk16 (GeneID 20872)	1	95.9	76.8	inactive
82	Stk16 (GeneID 20872)	2	54.4	51.3	inactive
83	Stk16 (GeneID 20872)	3	83.2	55.5	inactive
84	Tenm2 (GeneID 23964)	1	126	89	active
85	Tenm2 (GeneID 23964)	2	109	105	inactive
86	Tenm2 (GeneID 23964)	3	21.1	20.8	inactive
